Measured values: article PMC11975286, “Functional dissection of the conserved C. elegans LEM-3/ANKLE1 nuclease reveals a crucial requirement for the LEM-like and GIY-YIG domains for DNA bridge processing”
The comparison behind a weaker result is the experiment's own reference, which may not be listed here. Tags and fusion partners may be left off the protein sequences shown.

Target: T1, LEM-3(241-704) K441A-R456A (Caenorhabditis elegans) (UniProt G5EGA3)
T1 sequence (looked up): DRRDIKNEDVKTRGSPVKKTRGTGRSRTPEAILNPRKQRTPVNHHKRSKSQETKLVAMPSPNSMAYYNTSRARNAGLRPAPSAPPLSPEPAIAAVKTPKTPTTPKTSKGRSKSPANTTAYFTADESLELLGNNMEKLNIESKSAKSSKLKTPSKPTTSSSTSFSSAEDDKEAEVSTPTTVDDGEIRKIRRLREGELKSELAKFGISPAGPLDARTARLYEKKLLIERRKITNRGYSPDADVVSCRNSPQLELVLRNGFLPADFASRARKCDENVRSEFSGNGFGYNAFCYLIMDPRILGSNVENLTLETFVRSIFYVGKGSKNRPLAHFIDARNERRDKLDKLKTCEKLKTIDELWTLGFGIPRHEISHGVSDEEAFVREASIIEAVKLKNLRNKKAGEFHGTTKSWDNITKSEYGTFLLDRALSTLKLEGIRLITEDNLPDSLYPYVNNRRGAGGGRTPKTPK
Assay: EMSA
Details: no divalent metal, 100 mM Na+, residual binding, 10 mM Tris-HCl pH 7.5, 100 mM NaCl, 5% glycerol, 5 ng/ul poly(dI-dC), 4 C, 1 h, 8.3 nM HJ-X0-1 (0.13 nM for Kd), 6% native PAGE, 0.5x TBE, recombinant protein, residues 241-704, protein details: His-GST removed by TEV, label: 5'-Cy5 on X0-1, folded or branched DNA

ACGCTGCCGAATTCTACCAGTGCCTTGCTAGGACATCTTTGCCCACCTGCAGGTTCACCC / GGGTGAACCTGCAGGTGGGCAAAGATGTCCATCTGTTGTAATCGTCAAGCTTTATGCCGT / ACGGCATAAAGCTTGACGATTACAACAGATCATGGAGCTGTCTAGAGGATCCGACTATCG / CGATAGTCGGATCCTCTAGACAGCTCCATGTAGCAAGGCACTGGTAGAATTCGGCAGCGT [HJ-X0-1 (immobile Holliday junction)]
binding result: binds more weakly
